Patent publication US6992215B2, “Thiol-based NAALADase inhibitors” (Guildford Pharmaceuticals Inc., priority 2001, dated 2006)

System: chronic constrictive injury-induced rats
Test: Neuropathic pain in CCI model (sciatic nerve ligation, thermal hyperalgesia)
Assay type: in vivo
Protocol: Sciatic nerve ligation, consisting of 4 ligatures tied loosely around the sciatic nerve at 1 mm intervals proximal to the nerve trifurcation, was performed on rats. […] The rats were habituated to a Hargreaves apparatus. An infrared heat source was directed onto the dorsal surface of each rat's hindpaws and the time taken for the rat to withdraw its paws was noted. The difference in scores between the latency of the response for the paw on the operated side versus the paw on the unoperated control side was determined.
The rats were treated with either Compound 49 (10, 1 or 0.1 mg/kg) or a vehicle for 15 days after sciatic nerve ligation. Thermal pain responses were measured at days 0, 1, 5, 8, 11 and 15. The differences in scores for the rats treated with a vehicle and the rats treated with Compound 49 are graphically presented in FIGS. 13-15.
The rats were treated with either Compound 5 (50, 30, 10, 3, 1 or 0.3 mg/kg) or a vehicle for 12 (or 15) days after sciatic nerve ligation. Thermal pain responses were measured at days 0, 1, 5, 8 and 12 (and 15). The differences in scores for the rats treated with a vehicle and the rats treated with Compound 5 are graphically presented in FIGS. 17-22.
The rats received either Compound C (50 mg/kg i.p. daily) or a vehicle starting 10 days post surgery. […] Normal (unoperated) rats had approximately equal latencies for both paws. […]

In the case of `O=C(O)c1cccc(CC(CCCS)C(=O)O)c1` (stereo not drawn) [Compound 5, 3-carboxy-alpha-(3-mercaptopropyl)-benzenepropanoic acid], the “withdrawal latency on the unoperated (sham) side” value (10, 30 or 50 mg/kg, FIG. 23) is reported as “approximately equal withdrawal latencies”.
With `CC(C)(C)c1cc(CC(CCCS)C(=O)O)cc(C(=O)O)c1` (stereo not drawn) [Compound 49, 3-carboxy-5-(1,1-dimethylethyl)-alpha-(3-mercaptopropyl)-benzenepropanoic acid] the “withdrawal latency on the unoperated (sham) side” value (10, 1 or 0.1 mg/kg, FIG. 16) was “approximately equal withdrawal latencies”.
